Test results taken from patent publication US8481711B2, “Neurite outgrowth agent” (Hidenori Kamanishi, priority 2010, dated 2013).

System: fetal rat linear nerve cells (dopaminergic cells)
Assay: Gene expression analysis by microarray in fetal rat nerve cells
Format: cell-based
Conditions: 10 μg/mL
Description: As nerve cells, fetal rat linear nerve cells (dopaminergic cells) purchased from LONZA (U.S.A.) were used. The cells were adjusted to a concentration of 1.0×10^5 cells/mL, and were then cultured at 37° C. in the presence of 5% CO2. As a culture solution, a serum-free medium for primary nerve cell culture (manufactured by LONZA) was used, and it was prepared according to the protocols. A culture dish, the surface of which had been treated with polylysine, was used. The NAD analogue of the present invention was adjusted to a final concentration of 10 μg/mL in the culture solution. The NAD analogue of the present invention was added simultaneously at the start of cell culture. 24 hours later, RNA was extracted from the cells using TRIZOL (registered trademark) (Invitrogen) according to an ordinary method, and the extracted RNA was used as a sample on Day 1. […]
With regard to the RNA sample on Day 1 and the RNA sample on Day 2, each of which was extracted from the fetal rat linear nerve cells after the culture, gene expression in the nerve cells was analyzed by Cell Innovator Inc. (Fukuoka, Japan) on a commission basis. […]
Giving attention to the sample on Day 2 whose altered expression was larger than that of the sample on Day 1, genes whose expression was altered were extracted, and were then analyzed by IPA (Ingenuity Pathways Analysis).

3-(aminocarbonyl)-1-[5-O-[[1-(6-amino-9H-purin-9-yl)-1-deoxy-β-D-ribofuranose-5-O-yl]phosphonyloxy(oxylato)phosphinyl]-β-L-ribofuranosyl]pyridinium [NAD analogue of the present invention]
alteration of gene expression overall (microarray) (RNA samples on Day 1 and Day 2, Rat Genome 230 2.0 Array): small
genes with altered expression (IPA analysis) (sample on Day 2 (48 hours)): genes regarding cytoskeleton or nerve cells underwent altered expression
